The test has as its target T1, Flag-CCAR1L (long isoform of cell cycle and apoptosis regulator 1) (human) (UniProt Q8IX12).
T1 sequence: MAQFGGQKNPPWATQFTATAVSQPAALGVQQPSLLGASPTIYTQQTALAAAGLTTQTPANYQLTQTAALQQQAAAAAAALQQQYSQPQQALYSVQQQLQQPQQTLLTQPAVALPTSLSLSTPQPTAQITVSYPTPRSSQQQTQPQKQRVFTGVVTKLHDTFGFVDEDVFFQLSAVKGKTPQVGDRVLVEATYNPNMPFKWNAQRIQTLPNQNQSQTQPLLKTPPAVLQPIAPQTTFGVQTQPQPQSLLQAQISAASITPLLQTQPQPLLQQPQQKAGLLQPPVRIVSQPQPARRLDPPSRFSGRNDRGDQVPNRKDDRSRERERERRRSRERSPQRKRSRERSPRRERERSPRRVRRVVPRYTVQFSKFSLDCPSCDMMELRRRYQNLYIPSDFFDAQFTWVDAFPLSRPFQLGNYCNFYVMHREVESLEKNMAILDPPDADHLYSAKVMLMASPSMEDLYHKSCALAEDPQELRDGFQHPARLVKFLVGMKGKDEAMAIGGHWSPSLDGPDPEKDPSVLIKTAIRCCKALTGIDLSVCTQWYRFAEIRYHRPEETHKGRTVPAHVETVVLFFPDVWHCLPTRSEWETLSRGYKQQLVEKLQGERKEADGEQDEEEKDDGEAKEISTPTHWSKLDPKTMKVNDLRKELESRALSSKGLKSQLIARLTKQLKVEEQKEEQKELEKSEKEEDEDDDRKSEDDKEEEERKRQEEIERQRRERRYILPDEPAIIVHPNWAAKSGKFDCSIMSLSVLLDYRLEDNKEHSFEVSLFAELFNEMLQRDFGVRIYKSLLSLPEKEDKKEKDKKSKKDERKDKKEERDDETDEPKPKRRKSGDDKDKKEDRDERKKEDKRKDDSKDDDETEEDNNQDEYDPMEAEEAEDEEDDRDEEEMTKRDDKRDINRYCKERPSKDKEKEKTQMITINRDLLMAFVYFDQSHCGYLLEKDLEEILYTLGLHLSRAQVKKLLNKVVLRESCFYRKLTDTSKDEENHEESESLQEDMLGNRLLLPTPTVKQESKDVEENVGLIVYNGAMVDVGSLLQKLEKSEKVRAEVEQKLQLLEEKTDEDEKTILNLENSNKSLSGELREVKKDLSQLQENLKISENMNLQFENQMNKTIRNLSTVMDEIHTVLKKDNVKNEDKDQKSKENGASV
Description: co-IP; lysates of transfected A549 cells, immunoprecipitation with the indicated antibodies and immunoblotting; for Myc-SRSF5 with Flag-Tip60 the cells were at 2.5 or 25 mM glucose.

These are yes or no findings as the source states them, for the method shown. Binding seen in cells or lysates may run through a third protein. Binding calls can cover weak binding; strength is not graded here. Tags and fused reporters may be left off the sequences shown.

Consider HA-CDKN2A, for which the binding entry was “binds”.

(Values after PMC6018636, “Mutually exclusive acetylation and ubiquitylation of the splicing factor SRSF5 control tumor growth” (Nature Communications, 2018).)
